Source: PubChem BioAssay AID1053209 (Peter MacCallum Cancer Centre, 2014)
Purpose: 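Gene losses that combine with doxorubicin to kill mouse bone cancer cells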 (follow-up of hits). System: mouse primary osteosarcoma cells. Reagent: single siRNA against mouse genes, 25 nM (text also states 40 nM). Time to read-out: about 120 h (48 h before drug, then 72 h with drug). Conditions: doxorubicin 100 nM (about IC30-40), added 48 h after transfection, for 72 h. Measurement: 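Viability measured by ATP luminescence with and without doxorubicin, each replicate scaled to non-targeting siRNA NT1, averaged over two replicates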. Scale: viability with doxorubicin, vs NT1: higher = more viable cells under doxorubicin; viability ratio, doxorubicin over no drug: higher = less sensitisation to doxorubicin; viability without drug, vs NT1: higher = more viable cells without drug. Hit rule: 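Counted as active (class LC dox) if viability falls to 0.7 of NT1 or below under doxorubicin but stays within 0.7 to 1.1 without drug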.
The deposit covers about 1,580 reagents; this is an unselected part. Over the whole deposit, 207 (13%) were called active. 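Rows are single siRNAs; four siRNAs per gene were tested, a gene counting as confirmed only when at least two agree.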 Entries without a mark were called inactive. Reagent sequences are not shown.

| target | PubChem SID | combined effect class | viability with doxorubicin, vs NT1 | viability ratio, doxorubicin over no drug | viability without drug, vs NT1 |
| --- | --- | --- | --- | --- | --- |
| Arfgap1 | SID152269127 | normal viability with and without drug | 0.9 | 0.99 | 0.91 |
| Arfgap1 | SID152283369 | normal viability with and without drug | 0.99 | 1.1 | 0.9 |
| Arfgap1 | SID152324936 | normal viability with and without drug | 0.9 | 1.02 | 0.88 |
| Arfgap1 | SID152333108 | normal viability with and without drug | 0.82 | 0.85 | 0.96 |
| Plk2 | SID152272185 | low viability with and without drug | 0.16 | 0.42 | 0.38 |
| Plk2 | SID152276887 | normal viability with and without drug | 0.89 | 0.89 | 1 |
| Plk2 | SID152300582 | normal viability with and without drug | 1 | 1 | 1 |
| Plk2 | SID152333878 | normal viability with and without drug | 0.94 | 0.87 | 1.08 |
| Syt10 | SID152276256 | normal viability with and without drug | 1 | 1.05 | 0.95 |
| Syt10 | SID152294351 | normal viability with and without drug | 1.08 | 1.13 | 0.96 |
| Syt10 | SID152302246 | normal viability with and without drug | 0.94 | 0.94 | 1 |
| Syt10 | SID152304713 | normal viability with and without drug | 1.06 | 1.02 | 1.04 |
| Ikzf1 | SID152268984 | normal viability with and without drug | 0.96 | 1.04 | 0.92 |
| Ikzf1 | SID152269794 | normal viability with and without drug | 1.02 | 1.06 | 0.96 |
| Ikzf1 | SID152312639 | normal viability with and without drug | 1.02 | 1.13 | 0.9 |
| Ikzf1 | SID152341030 | normal viability with and without drug | 1.05 | 1.07 | 0.98 |

Reformatted: results already given
{"target":"Syt10","PubChem SID":"SID152276256","combined effect class":"normal viability with and without drug","viability with doxorubicin, vs NT1":1,"viability ratio, doxorubicin over no drug":1.05,"viability without drug, vs NT1":0.95}
{"target":"Syt10","PubChem SID":"SID152294351","combined effect class":"normal viability with and without drug","viability with doxorubicin, vs NT1":1.08,"viability ratio, doxorubicin over no drug":1.13,"viability without drug, vs NT1":0.96}

The results go on.
| target | PubChem SID | combined effect class | viability with doxorubicin, vs NT1 | viability ratio, doxorubicin over no drug | viability without drug, vs NT1 |
| --- | --- | --- | --- | --- | --- |
| Copb1 | SID152264612 | low viability with and without drug | 0.06 | 0.29 | 0.21 |
| Copb1 | SID152285595 | normal viability with and without drug | 1 | 1.05 | 0.95 |
| Copb1 | SID152322018 | normal viability with and without drug | 1.09 | 1.12 | 0.97 |
| Copb1 | SID152339226 | low viability with and without drug | 0.08 | 0.5 | 0.16 |
| Adarb1 | SID152279713 | normal viability with and without drug | 0.93 | 0.9 | 1.03 |
| Adarb1 | SID152298040 | normal viability with and without drug | 0.97 | 0.95 | 1.02 |
| Adarb1 | SID152309077 | normal viability with and without drug | 0.78 | 0.89 | 0.88 |
| Adarb1 | SID152326608 | high viability only with doxorubicin | 1.13 | 1.07 | 1.06 |
